In this assay the test system is BDF1 mice, Lewis lung carcinoma iv, survival T/C. Briefly: NCI In Vivo Anticancer Drug Screen. Data for tumor model Lewis Lung Carcinoma (intravenous) in B6D2F1 (BDF1) mice. The following applies: T/C endpoint: median survival time, higher T/C = longer survival. How it is done: The antitumor activity of compounds was measured in mice bearing transplantable tumors. Survival or tumor size were measured and the results are expressed as the measurement made in the treated group (T) divided by the measurement made in the vehicle treated control group (C). The tumor model used in this assay is Lewis Lung Carcinoma (intravenous) in B6D2F1 (BDF1) mice

The mark [1] stands for this setting: dose: 32.0 mg/kg/injection, schedule: Q01DX009 (ip), vehicle: saline with Tween-80.
Where [2] appears, read: dose: 25.0 mg/kg/injection, schedule: Q01DX009 (ip), vehicle: saline with Tween-80.
[3] abbreviates: dose: 400.0 mg/kg/injection, schedule: Q01DX009 (ip), vehicle: saline.
The mark [4] stands for this setting: dose: 200.0 mg/kg/injection, schedule: Q01DX009 (ip), vehicle: saline.
Where [5] appears, read: dose: 50.0 mg/kg/injection, schedule: Q01DX009 (ip), vehicle: Klucel (hydroxypropylcellulose) (HPC).
The mark [6] stands for this setting: dose: 200.0 mg/kg/injection, schedule: Q01DX009 (ip), vehicle: Klucel (hydroxypropylcellulose) (HPC).
Setting [7] is: dose: 400.0 mg/kg/injection, schedule: Q01DX009 (ip), vehicle: Klucel (hydroxypropylcellulose) (HPC).
Setting [8] is: dose: 50.0 mg/kg/injection, schedule: Q01DX009 (ip), vehicle: saline.
The mark [9] stands for this setting: dose: 100.0 mg/kg/injection, schedule: Q01DX009 (ip), vehicle: saline.
[10] abbreviates: dose: 3.12 mg/kg/injection, schedule: Q01DX009 (ip), vehicle: saline.
The mark [11] stands for this setting: dose: 6.25 mg/kg/injection, schedule: Q01DX009 (ip), vehicle: saline.

Structures are written as SMILES. The list does not hold the whole screen: it gathers tests that were run many times, whatever their T/C, doses with no T/C, and many T/C values between a quarter and a half above the control. Further doses and runs are listed elsewhere. T/C: endpoint of the treated group in % of that of the vehicle group. Some entries give survivors of the animals treated and no T/C: the source holds a T/C of zero for them, seemingly a mark for toxic or unscored doses. Some doses without a T/C left all or most animals alive at the check, yet need not have been tolerated: survival well below the control is almost never listed, so the zero probably covers shortened survival too. Counts of survivors are from the toxicity check (mostly the fifth day) where no day follows; animals may have died later. Schedule codes are those of the source, taken here to give the interval after Q, in days (D) or hours (H), and the number of doses after X. Some doses were run more than once; the values are given in rising order. For survival time, the PubChem record calls one and a half times the control and up active, and a quarter to a half above the control has no call in these data; cut-offs in other NCI protocols can differ.

In the case of `CN(C)CCN1C(=O)c2cccc3cc(N)cc(c23)C1=O`, the survivor count under setting [1] is listed as 10 of 10.
Turning to `COc1cc(O)c2c(O)c3c(c4c2c1[C@]1(C4)C(C)=CCCC1(C)C)[C@H](O)[C@@]1(O)CC(=O)C(C(N)=O)=C(O)[C@@]1(O)C3=O`, the survivor count under setting [2] was 10 of 10 and the survivor count (dose: 50.0 mg/kg/injection, schedule: Q01DX009 (ip), vehicle: saline with Tween-80) is reported as 6 of 10.
`O=P1(NCCCl)OCCC(OO)N1CCCl` (centres undefined): the T/C (dose: 154.0 mg/kg/injection, schedule: Q01DX001 (ip), vehicle: Klucel (hydroxypropylcellulose) (HPC)) is 131 % of control. Further, the survivor count (dose: 345.0 mg/kg/injection, schedule: Q01DX001 (ip), vehicle: Klucel (hydroxypropylcellulose) (HPC)) is reported as 5 of 10.
For `[Cl][Mn][Cl]`, the survivor count (dose: 128.0 mg/kg/injection, schedule: Q01DX009 (ip), vehicle: saline) is 0 of 10.
`[N-]=[N+]=CC(=O)CCC(=O)C=[N+]=[N-]`: the survivor count is on record as 10 of 10 (dose: 3.12 mg/kg/injection, schedule: Q01DX009 (ip), vehicle: DMSO); 10 of 10 (dose: 6.25 mg/kg/injection, schedule: Q01DX009 (ip), vehicle: DMSO); 10 of 10 (dose: 12.5 mg/kg/injection, schedule: Q01DX009 (ip), vehicle: DMSO); 9 of 10 (dose: 25.0 mg/kg/injection, schedule: Q01DX009 (ip), vehicle: DMSO).
As to `O=C1C2(Cl)C3(Cl)C4(Cl)C(Cl)(Cl)C5(Cl)[C@]3(Cl)C1(Cl)[C@]5(Cl)C24Cl` (some centres undefined), the survivor count under setting [2] is on record as 4 of 10.
Regarding `O=C1C=CC(=O)O1` (tested in a mixture with another compound), the survivor count under setting [3] is reported as 4 of 10.
With `S=c1nc[nH]c2nc[nH]c12`, the survivor count was 9 of 10 and 10 of 10 (dose: 60.0 mg/kg/injection, schedule: Q01DX009 (ip), vehicle: Klucel (hydroxypropylcellulose) (HPC)); 10 of 10 (dose: 120.0 mg/kg/injection, schedule: Q01DX009 (ip), vehicle: Klucel (hydroxypropylcellulose) (HPC)); 10 of 10 (dose: 240.0 mg/kg/injection, schedule: Q01DX009 (ip), vehicle: Klucel (hydroxypropylcellulose) (HPC)).
As to `O=C1CC2(C(=O)N1CN1CCOCC1)c1ccccc1-c1ccccc12`, the survivor count (dose: 800.0 mg/kg/injection, schedule: Q01DX009 (ip), vehicle: Klucel (hydroxypropylcellulose) (HPC)) is given as 1 of 10.
Turning to `OCCNCCNc1ccnc2cc(Cl)ccc12`, the survivor count under setting [4] was 7 of 10.
With `O=C(NCCCN1CC1)C(=O)NCCCN1CC1`, the survivor count by setting is: (dose: 6.0 mg/kg/injection, schedule: Q01DX009 (ip), vehicle: saline) 10 of 10; (dose: 12.0 mg/kg/injection, schedule: Q01DX009 (ip), vehicle: saline) 8 of 10.
In the case of `C1CCC2[N-]CC3CCCCC3[N-]CC3CCCCC3[N-]CC3CCCCC3[N-]CC2C1.[Cu]` (centres undefined), the T/C (dose: 1.56 mg/kg/injection, schedule: Q01DX009 (ip), vehicle: Klucel (hydroxypropylcellulose) (HPC)) is 126 % of control. The survivor count (dose: 12.5 mg/kg/injection, schedule: Q01DX009 (ip), vehicle: Klucel (hydroxypropylcellulose) (HPC)) is 10 of 10 and the survivor count (dose: 25.0 mg/kg/injection, schedule: Q01DX009 (ip), vehicle: Klucel (hydroxypropylcellulose) (HPC)) was 1 of 10.
In the case of `Cc1cc(NCCCCCCCNc2cc(C)nc3cc(N)ccc23)c2ccc(N)cc2n1`, the survivor count under setting [2] was 10 of 10.
As for `CN(C)c1ccc2c(N(C)C)cc(N(C)C)nc2c1`, the survivor count under setting [5] is 2 of 10.
For `CC12C(=O)C=CCC1=CCC1C2CCC2(O)C(=O)OC3(C)C4CC5(C)C(COC16OC23C5C6=O)C(=O)O4` (centres undefined), the survivor count runs as follows: under setting [6], 10 of 10; under setting [7], 2 of 10.
As to `C=C1C(=O)OCC1(C(=O)OCC)C(=O)OCC`, the T/C (dose: 16.0 mg/kg/injection, schedule: Q01DX009 (ip), vehicle: saline with Tween-80) was 125 % of control. The survivor count under setting [1] was 1 of 10 and the survivor count (dose: 64.0 mg/kg/injection, schedule: Q01DX009 (ip), vehicle: saline with Tween-80) was 0 of 10.
Turning to `OCCOCC(F)(F)F`, the survivor count under setting [8] is on record as 10 of 10, the survivor count under setting [9] was 10 of 10 and the survivor count under setting [4] is reported as 10 of 10.
Take `CC(=O)O[C@@H]1C(=O)C=C(C)[C@@H]2[C@@H](OC(=O)C=C(C)C)[C@H]3OC(=O)C[C@H]4[C@@H](C)[C@@H](O)[C@]5(O)OC[C@]34[C@H]5[C@@]12C`: where the note is “dose: 2.0 mg/kg/injection, schedule: Q01DX009 (ip), vehicle: saline”, the T/C is 127 % of control.
For the compound `CCCCCC(O)C1C(=O)OC(C)C(O)/C=C/C=C/C=C/C=C\C=C(\C)C(O)CC(O)CC(O)CC(O)CC(O)CC(O)CC1O` (centres undefined), the survivor count (dose: 50.0 mg/kg/injection, schedule: Q01DX009 (ip), vehicle: distilled water + alcohol) is recorded as 3 of 10.
Turning to `[Cl][Hg][Cl]`, the survivor count under setting [10] is 6 of 10; the survivor count under setting [11] is 1 of 10; the survivor count (dose: 12.5 mg/kg/injection, schedule: Q01DX009 (ip), vehicle: saline) is on record as 0 of 10.
As for `Cc1cc(/C=C/c2cc[n+](C)c3ccccc23)c(O)c2ncccc12`, the survivor count under setting [2] is 10 of 10.
Regarding `N=c1ccn2c(n1)OC1C(O)C(CO)OC12` (centres undefined), the T/C is 126 % of control under setting [8], 137 % of control under setting [4] and 140 % of control under setting [3]. For the same compound, the survivor count (dose: 800.0 mg/kg/injection, schedule: Q01DX009 (ip), vehicle: saline) is reported as 9 of 10.
In the case of `CC[N](CC)[Ge]([CH2]C)[CH2]C.CC[N](CC)[Ge]([CH2]C)[CH2]C`, the survivor count (dose: 100.0 mg/kg/injection, schedule: Q01DX009 (ip), vehicle: suspension in saline) is 4 of 10.
Regarding `C=C(Cl)C(=NC(C)(C)C)Nc1ccccc1C`, under setting [5], the survivor count is reported as 0 of 10.
As to `CNc1nc(N(C)C)nc(N(C)C)n1`, the survivor count is 10 of 10 under setting [10], 10 of 10 under setting [11], 10 of 10 under setting [8] and 2 of 10 under setting [9].
Take `[CH3][Sn]([CH3])([Cl])[S]CCN`: under setting [8], the survivor count was 5 of 10.
For the compound `CN(C)[C@@H]1C(=O)C(C(N)=O)=C(O)[C@@]2(O)C(=O)C3=C(O)c4c(O)ccc(Cl)c4[C@@](C)(O)[C@H]3C[C@@H]12`, the survivor count under setting [3] is 10 of 10.
Consider `c1ccc(CN2CCOC2)cc1`, for which the survivor count was 5 of 10 under setting [4] and 0 of 10 under setting [3].
As to `C1CN1c1nc(N2CC2)nc(N2CC2)n1`, the T/C (dose: 0.5 mg/kg/injection, schedule: Q01DX009 (ip), vehicle: suspension in saline) was 143 % of control. In addition, the survivor count (dose: 1.0 mg/kg/injection, schedule: Q01DX009 (ip), vehicle: suspension in saline) is listed as 10 of 10 and the survivor count (dose: 2.0 mg/kg/injection, schedule: Q01DX009 (ip), vehicle: suspension in saline) is on record as 10 of 10.
As for `Cc1cc(N(CC(C)Br)CC(C)Br)ccc1N=Nc1ccccc1C(=O)O` (centres undefined), the survivor count under setting [2] is 10 of 10.
For the compound `CC1=CC(=NN=c2cc(C)n([O-])c(C)c2)C=C(C)[N+]1=O`, the survivor count (dose: 400.0 mg/kg/injection, schedule: Q01DX009 (ip), vehicle: saline with Tween-80) is recorded as 8 of 10.
On to `Cc1cc(O)c(C(C)C)cc1S(=O)(=O)O` (tested in a mixture with another compound), for which the survivor count under setting [7] is 0 of 10.
With `NCCc1ccc(O)c(O)c1`, the survivor count by setting is: under setting [5], 10 of 10; (dose: 100.0 mg/kg/injection, schedule: Q01DX009 (ip), vehicle: Klucel (hydroxypropylcellulose) (HPC)) 10 of 10; under setting [6], 10 of 10; under setting [7], 10 of 10; (dose: 600.0 mg/kg/injection, schedule: Q01DX009 (ip), vehicle: Klucel (hydroxypropylcellulose) (HPC)) 10 of 10.
Consider `NC(N)=NC(N)=Nc1ccc(-c2ccc(N=C(N)N=C(N)N)cc2)cc1`, for which the survivor count under setting [2] was 5 of 10.

Source of the values: PubChem BioAssay AID274 (DTP/NCI, 2004).
